Assay results from patent publication US7638140B2, “Adhesive mixture for transdermal delivery of highly plasticizing drugs” (priority 1997, dated 2009).
Where two headings read alike, the source gives them in different places.

Legend:
[1] = Turbidity on adding selegiline-HCl and a deprotonating agent to water; assay type: physicochemical; conditions: selegiline-HCl plus deprotonating agent in water, visual
[2] = assay type: physicochemical; conditions: propylene glycol as test medium, compared with stoichiometric value

Compound	TURBIDITY [1]	TURBIDITY ([1]; listed as aniline)	Selegiline Free Base Conversion [2]	Selegiline Free Base Conversion ([2]; listed as Amiline)
Nc1ccccc1 [Aniline]	No	no turbidity	no conversion	0%
NCCO [Ethanolamine]	Yes			
